This passage reports binding results from doi:10.1101/613612.

No constants are given. Whether binding was seen depends on the method and setting. In cells and extracts the contact can be indirect. Where a sequence is shown, tags or fusion partners need not be part of it.

This test has as its target T1, cLuc-AtPIP2a (Arabidopsis thaliana) (UniProt P43286).
T1 sequence: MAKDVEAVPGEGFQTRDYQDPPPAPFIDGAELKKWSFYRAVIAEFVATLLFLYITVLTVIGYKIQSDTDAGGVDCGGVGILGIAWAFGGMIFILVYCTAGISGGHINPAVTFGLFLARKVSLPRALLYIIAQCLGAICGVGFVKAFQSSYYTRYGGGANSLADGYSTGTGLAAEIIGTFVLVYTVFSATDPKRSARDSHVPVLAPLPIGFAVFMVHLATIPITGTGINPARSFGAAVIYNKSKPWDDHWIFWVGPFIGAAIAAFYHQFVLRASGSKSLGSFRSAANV
The experiment in a line: split reporter.

Turning to Pti1b-nLuc (tomato) (enzyme), the binding result is “no binding”.
